Results on 26 compounds are retold here after PubChem BioAssay AID248 (DTP/NCI, 2004).

This test has as its system L1210 leukemia ip in BDF1 mice, survival T/C. Description: NCI In Vivo Anticancer Drug Screen. Data for tumor model L1210 Leukemia (intraperitoneal) in B6D2F1 (BDF1) mice. The note with it: T/C endpoint: mean survival time, higher T/C = longer survival.
The mark [1] stands for this setting: dose: 20.0 mg/kg/injection, schedule: Q01DX009 (ip), vehicle: saline.
Setting [2] is: dose: 400.0 mg/kg/injection, schedule: Q04DX003 (ip), vehicle: saline with Tween-80.
The mark [3] stands for this setting: dose: 200.0 mg/kg/injection, schedule: Q04DX003 (ip), vehicle: saline with Tween-80.
The mark [4] stands for this setting: dose: 200.0 mg/kg/injection, schedule: Q01DX001 (ip), vehicle: saline.
The mark [5] stands for this setting: dose: 400.0 mg/kg/injection, schedule: Q01DX001 (ip), vehicle: saline.
The mark [6] stands for this setting: dose: 400.0 mg/kg/injection, schedule: Q01DX009 (ip), vehicle: Klucel (hydroxypropylcellulose) (HPC).
The mark [7] stands for this setting: dose: 400.0 mg/kg/injection, schedule: Q01DX009 (ip), vehicle: saline with Tween-80.
Where [8] appears, read: dose: 100.0 mg/kg/injection, schedule: Q04DX003 (ip), vehicle: saline.
Setting [9] is: dose: 200.0 mg/kg/injection, schedule: Q04DX003 (ip), vehicle: saline.
[10] abbreviates: dose: 400.0 mg/kg/injection, schedule: Q04DX003 (ip), vehicle: saline.
The mark [11] stands for this setting: dose: 200.0 mg/kg/injection, schedule: Q01DX009 (ip), vehicle: saline with Tween-80.
The mark [12] stands for this setting: dose: 200.0 mg/kg/injection, schedule: Q01DX001 (ip), vehicle: Klucel (hydroxypropylcellulose) (HPC).
Where [13] appears, read: dose: 400.0 mg/kg/injection, schedule: Q04DX002 (ip), vehicle: Klucel (hydroxypropylcellulose) (HPC).

The list does not hold the whole screen: it is rich in T/C values a quarter to a half above the control, in often repeated tests (any T/C) and in doses without a T/C. Other doses and runs of a compound stand elsewhere. T/C: endpoint of the treated group in % of that of the vehicle group. Some doses have a count of surviving animals in place of a T/C: the source holds a T/C of zero for them, seemingly a mark for toxic or unscored doses. Some doses without a T/C left all or most animals alive at the check, yet need not have been tolerated: the source hardly ever lists a survival T/C far under the control, and the zero likely stands for such cases as well. Survivors were counted at the toxicity check, usually on the fifth day, unless a day is given; later deaths do not show. Schedules are NCI's codes, taken here to give the interval after Q, in days (D) or hours (H), and the number of doses after X. Some entries were tested several times; the values are given in rising order. Counts like (3×) count equal records among those shown. Some schedules carry Z or #; the key to these is not given. Where survival is the endpoint, the PubChem record calls one and a half times the control and up active, and a quarter to a half above the control has no call in these data; cut-offs in other NCI protocols can differ. Some T/C values are followed by the survivors on the day toxicity was checked, most often the fifth; without a count, all were alive then.

Consider `Cc1ccc(NC(=O)N2CC2C)cc1NC(=O)N1CC1C` (stereo unspecified), for which the T/C (dose: 5.0 mg/kg/injection, schedule: Q01DX009 (ip), vehicle: saline) was 133 % of control; the T/C (dose: 10.0 mg/kg/injection, schedule: Q01DX009 (ip), vehicle: saline) is 135, 140, 142 % of control; the T/C under setting [1] is 142 % of control. Further, the survivor count is 5 of 6 under setting [1]; 10 of 10 and 6 of 6 (dose: 40.0 mg/kg/injection, schedule: Q01DX009 (ip), vehicle: saline); 1 of 3 (dose: 100.0 mg/kg/injection, schedule: Q04DX002 (ip), vehicle: saline); 0 of 3 (dose: 200.0 mg/kg/injection, schedule: Q04DX002 (ip), vehicle: saline); 0 of 3 (dose: 400.0 mg/kg/injection, schedule: Q04DX002 (ip), vehicle: saline).
In the case of `OC(CC1=NNC(=S)NC1)(C(F)(F)F)C(F)(F)F`, the survivor count under setting [2] is 1 of 6.
As for `COc1ccc(/C=N/N=C(N)N)cc1`, the survivor count was 0 of 6 (dose: 120.0 mg/kg/injection, schedule: Q01DX Z (ip), vehicle: saline) and 0 of 6 (dose: 240.0 mg/kg/injection, schedule: Q01DX Z (oral), vehicle: other).
As to `COc1cccc2c1C(=O)CC2`, the survivor count is given as 3 of 6 under setting [3] and 0 of 6 under setting [2].
In the case of `OC(CNc1ccnc2cc(Cl)ccc12)CNC1CCCCC1` (stereo unspecified), the survivor count runs as follows: (dose: 150.0 mg/kg/injection, schedule: Q01DX001 (ip), vehicle: other) 0 of 6; (dose: 300.0 mg/kg/injection, schedule: Q01DX001 (ip), vehicle: other) 1 of 6.
With `C=CC[As](=O)(O)c1ccccc1Cl`, the survivor count runs as follows: (dose: 25.0 mg/kg/injection, schedule: Q04DX003 (ip), vehicle: saline with Tween-80) 6 of 6; (dose: 50.0 mg/kg/injection, schedule: Q04DX003 (ip), vehicle: saline with Tween-80) 3 of 6; (dose: 100.0 mg/kg/injection, schedule: Q04DX003 (ip), vehicle: saline with Tween-80) 0 of 6 (2×); under setting [3], 0 of 6; under setting [2], 0 of 6.
For the compound `O=C(Nc1ccc([N+](=O)[O-])cc1)Nc1ccc([N+](=O)[O-])c(C(F)(F)F)c1`, the survivor count is, setting by setting: (dose: 100.0 mg/kg/injection, schedule: Q04DX003 (ip), vehicle: acetone) 3 of 6; (dose: 170.0 mg/kg/injection, schedule: Q01DX009 (ip), vehicle: saline with Tween-80) 2 of 6; under setting [4], 2 of 6; under setting [5], 2 of 6.
In the case of `CC1NC(=O)COC1c1ccccc1` (stereo unspecified), the survivor count under setting [6] is listed as 0 of 6.
Turning to `CC(C)c1ccc(C(=O)C2CC2)cc1`, the survivor count by setting is: (dose: 200.0 mg/kg/injection, schedule: Q01DX009 (ip), vehicle: Klucel (hydroxypropylcellulose) (HPC)) 6 of 6; under setting [6], 2 of 6.
Regarding `NC(=O)Nc1ccc(Cl)cc1`, the survivor count under setting [7] was 3 of 6.
For the compound `Cc1cc(Cl)nc(Nc2nc3cc(Cl)c(Cl)cc3[nH]2)n1`, the survivor count (dose: 25.0 mg/kg/injection, schedule: Q01DX009 (ip), vehicle: acetone) is recorded as 6 of 6; the survivor count (dose: 50.0 mg/kg/injection, schedule: Q01DX009 (ip), vehicle: acetone) is listed as 6 of 6; the survivor count under setting [8] is on record as 6 of 6; the survivor count under setting [9] was 6 of 6; the survivor count under setting [10] was 6 of 6.
Turning to `Nc1ccc2sc3ccccc3c2c1`, the survivor count under setting [11] was 3 of 6 and the survivor count under setting [2] was 3 of 6.
Take `Cc1nc(N)[nH]c(=O)c1CCCNC(=O)c1cccc(CBr)c1`: the survivor count reads like this: (dose: 100.0 mg/kg/injection, schedule: Q04DX002 (ip), vehicle: Klucel (hydroxypropylcellulose) (HPC)) 3 of 3; under setting [12], 3 of 6; under setting [13], 1 of 3.
In the case of `O=P(c1c(F)c(F)c(F)c(F)c1F)(c1c(F)c(F)c(F)c(F)c1F)c1c(F)c(F)c(F)c(F)c1F`, the survivor count (dose: 400.0 mg/kg/injection, schedule: Q01DX001 (ip), vehicle: saline with Tween-80) is reported as 6 of 6.
`CCC(C)[Se][Se]C(C)CC` (stereo unspecified): the survivor count reads like this: under setting [9], 6 of 6; under setting [10], 6 of 6.
With `Cc1ccc2cc(N(C)C)ccc2[n+]1C`, the survivor count is, setting by setting: (dose: 25.0 mg/kg/injection, schedule: Q04DX003 (ip), vehicle: saline) 2 of 6; (dose: 50.0 mg/kg/injection, schedule: Q04DX003 (ip), vehicle: saline) 0 of 6; under setting [8], 0 of 6; under setting [9], 0 of 6; under setting [10], 0 of 6.
On to `CCCNCCN`, for which the survivor count is reported as 4 of 6 (dose: 200.0 mg/kg/injection, schedule: Q01DX009 (ip), vehicle: saline) and 0 of 6 under setting [10].
`CC(C)(C)OC(=O)CC1(C)CCC2C1C(=O)OC2(C)C` (stereo unspecified): the survivor count runs as follows: under setting [4], 2 of 6; under setting [5], 0 of 6.
For `Cc1nc(-c2ccc(N=Cc3ccc(N(CCCOS(C)(=O)=O)CCCOS(C)(=O)=O)cc3C)cc2)c(C)s1`, under setting [7], the survivor count is on record as 3 of 6.
As for `CC(C)(C)NC(=O)Oc1ccccc1C(=O)Nc1ccccc1`, the T/C is 97, 103 (2×), 104 % of control (dose: 100.0 mg/kg/injection, schedule: Q01DX009 (ip), vehicle: saline with Tween-80) and 118 % of control [4 of 6 alive] under setting [11]. Besides, the survivor count is 1 of 3, 2 of 3, 5 of 6 under setting [11]; 2 of 3 and 5 of 6 under setting [7].
`CCCN(CC#N)CCC`: the survivor count reads like this: (dose: 12.0 mg/kg/injection, schedule: Q01DX009 (ip), vehicle: Klucel (hydroxypropylcellulose) (HPC)) 1 of 6; (dose: 25.0 mg/kg/injection, schedule: Q01DX009 (ip), vehicle: Klucel (hydroxypropylcellulose) (HPC)) 1 of 6; (dose: 25.0 mg/kg/injection, schedule: Q04DX003 (ip), vehicle: Klucel (hydroxypropylcellulose) (HPC)) 2 of 6; (dose: 50.0 mg/kg/injection, schedule: Q01DX009 (ip), vehicle: Klucel (hydroxypropylcellulose) (HPC)) 0 of 6; (dose: 50.0 mg/kg/injection, schedule: Q04DX003 (ip), vehicle: Klucel (hydroxypropylcellulose) (HPC)) 0 of 6; (dose: 100.0 mg/kg/injection, schedule: Q04DX003 (ip), vehicle: Klucel (hydroxypropylcellulose) (HPC)) 0 of 6. In addition, the survivor count is 0 of 6 (dose: 200.0 mg/kg/injection, schedule: Q04DX003 (ip), vehicle: Klucel (hydroxypropylcellulose) (HPC)) and 0 of 6 (dose: 400.0 mg/kg/injection, schedule: Q04DX003 (ip), vehicle: Klucel (hydroxypropylcellulose) (HPC)).
With `O=S(=O)(C#Cc1ccccc1)c1ccccc1`, the survivor count was 1 of 3 (dose: 200.0 mg/kg/injection, schedule: Q04DX002 (ip), vehicle: Klucel (hydroxypropylcellulose) (HPC)) and 3 of 3 under setting [13].
On to `Nc1cc(Cl)c(Cl)c(Cl)c1`, for which, where the note is “dose: 200.0 mg/kg/injection, schedule: Q01DX001 (ip), vehicle: carboxymethylcellulose (CMC)”, the survivor count was 2 of 4.
With `CCOC(=O)/C=C\C(=O)O.[Mn]`, the survivor count runs as follows: under setting [11], 3 of 6; under setting [10], 0 of 4. Under setting [9], the T/C is 128 % of control.
Regarding `Nc1nc2c(nc(NO)n2C2OC(CO)C(O)C2O)c(=O)[nH]1` (stereo unspecified), for the setting “dose: 400.0 mg/kg/injection, schedule: Q01DX001 (ip), vehicle: carboxymethylcellulose (CMC)”, the survivor count is 1 of 4.
In the case of `CC1C(C(=O)c2ccc(-c3ccccc3)cc2)N1c1ccccc1` (stereo unspecified), the survivor count under setting [12] is on record as 3 of 3.
